# Laboratory results published in PubChem BioAssay AID256 (DTP/NCI, 2004).
# The list is a part of this screen's results and no random one: it gathers tests that were run many times, whatever their T/C, doses with no T/C, and many T/C values between a quarter and a half above the control. Further doses and runs are listed elsewhere. T/C is the treated group as % of the vehicle group. Some doses have a count of surviving animals in place of a T/C: the source files T/C as zero there, which appears to mark a toxic dose or a test without result, not a measured value. Some survivor counts are full or nearly so, which does not show that the dose was tolerated: the source hardly ever lists a survival T/C far under the control, and the zero likely stands for such cases as well. Survivors were counted at the toxicity check, usually on the fifth day, unless a day is given; later deaths do not show. Schedules are NCI's codes, taken here to give the interval after Q, in days (D) or hours (H), and the number of doses after X. For survival time, the PubChem record calls one and a half times the control and up active, and a quarter to a half above the control has no call in these data; cut-offs in other NCI protocols can differ. Some entries hold several experiments; their values stand side by side, smallest first.
# Test system: CD2F1 mice, L1210 leukemia ip, survival T/C
# Assay: NCI In Vivo Anticancer Drug Screen. Data for tumor model L1210 Leukemia (intraperitoneal) in CD2F1 (CDF1) mice
# Conditions: higher T/C = longer survival
# In short: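 Mice carrying a transplanted tumor received test compound or vehicle alone. The value is the measurement in the treated group divided by that in the vehicle-treated control group.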
# [1] = T/C endpoint: mean survival time, dose: 100.0 mg/kg/injection, schedule: Q04DX002 (ip), vehicle: saline with Tween-80
# [2] = T/C endpoint: mean survival time, dose: 200.0 mg/kg/injection, schedule: Q01DX009 (ip), vehicle: saline with Tween-80
# [3] = T/C endpoint: mean survival time, dose: 150.0 mg/kg/injection, schedule: Q01DX001 (ip), vehicle: saline
# [4] = T/C endpoint: mean survival time, dose: 300.0 mg/kg/injection, schedule: Q01DX001 (ip), vehicle: saline
# [5] = T/C endpoint: mean survival time, dose: 200.0 mg/kg/injection, schedule: Q04DX003 (ip), vehicle: saline with Tween-80
# [6] = T/C endpoint: mean survival time, dose: 400.0 mg/kg/injection, schedule: Q04DX003 (ip), vehicle: saline with Tween-80
# [7] = T/C endpoint: mean survival time, dose: 400.0 mg/kg/injection, schedule: Q01DX009 (ip), vehicle: saline with Tween-80
structure (smiles),measurement,setting,value
CCCCCCCCCCCC1CCCC(C)N1 (configuration not stated),survivor count,[1],3 of 3
same,survivor count,"T/C endpoint: mean survival time, dose: 200.0 mg/kg/injection, schedule: Q04DX002 (ip), vehicle: saline with Tween-80",0 of 3
same,survivor count,"T/C endpoint: mean survival time, dose: 400.0 mg/kg/injection, schedule: Q04DX002 (ip), vehicle: saline with Tween-80",0 of 3
NC(N)=Nc1ncnc2nncnc12,survivor count,"T/C endpoint: mean survival time, dose: 75.0 mg/kg/injection, schedule: Q01DX001 (ip), vehicle: other",0 of 6
same,survivor count,"T/C endpoint: mean survival time, dose: 150.0 mg/kg/injection, schedule: Q01DX001 (ip), vehicle: other",0 of 6
same,survivor count,"T/C endpoint: mean survival time, dose: 300.0 mg/kg/injection, schedule: Q01DX001 (ip), vehicle: other",0 of 6
Nc1cc(=O)c2cn[nH]c2[nH]1,survivor count,"T/C endpoint: mean survival time, dose: 200.0 mg/kg/injection, schedule: Q01DX005 (ip), vehicle: other",6 of 6
CCOP(=S)(OCC)N1c2ccccc2Sc2ccccc21,survivor count,[2],4 of 6
O=C1NC(CCl)(CCl)CO1,survivor count,"T/C endpoint: mean survival time, dose: 75.0 mg/kg/injection, schedule: Q01DX001 (ip), vehicle: saline",0 of 6
same,survivor count,[3],0 of 6
same,survivor count,[4],0 of 6
CC[C@@]1(OP(=O)(O)O)C(=O)OCc2c1cc1n(c2=O)Cc2cc3ccccc3nc2-1,T/C,"T/C endpoint: median survival time, dose: 8.25 mg/kg/injection, schedule: Q04HX004 (iv), vehicle: water",142 % of control
same,T/C,"T/C endpoint: median survival time, dose: 22.0 mg/kg/injection, schedule: Q04DX002 (ip), vehicle: water",125 and 132 % of control
same,survivor count,"T/C endpoint: median survival time, dose: 44.0 mg/kg/injection, schedule: Q04HX004 (iv), vehicle: water",1 of 6
CC1OC(C)(C)OC1C(=O)O (configuration not stated),survivor count,"T/C endpoint: mean survival time, dose: 100.0 mg/kg/injection, schedule: Q01DX009 (ip), vehicle: Klucel (hydroxypropylcellulose) (HPC)",6 of 6
same,survivor count,"T/C endpoint: mean survival time, dose: 200.0 mg/kg/injection, schedule: Q01DX009 (ip), vehicle: Klucel (hydroxypropylcellulose) (HPC)",6 of 6
same,survivor count,"T/C endpoint: mean survival time, dose: 400.0 mg/kg/injection, schedule: Q01DX009 (ip), vehicle: Klucel (hydroxypropylcellulose) (HPC)",4 of 6
Cc1cc(C)c(N2C(=O)C=CC2=O)c(C)c1,survivor count,"T/C endpoint: mean survival time, dose: 12.5 mg/kg/injection, schedule: Q01DX009 (ip), vehicle: saline with Tween-80",5 of 6
same,survivor count,"T/C endpoint: mean survival time, dose: 25.0 mg/kg/injection, schedule: Q01DX009 (ip), vehicle: saline with Tween-80",2 of 6
same,survivor count,"T/C endpoint: mean survival time, dose: 25.0 mg/kg/injection, schedule: Q04DX002 (ip), vehicle: saline with Tween-80",0 of 3
same,survivor count,"T/C endpoint: mean survival time, dose: 50.0 mg/kg/injection, schedule: Q04DX002 (ip), vehicle: saline with Tween-80",0 of 3
same,survivor count,[1],0 of 3
CCOC(=O)/C=C/SCCCN,survivor count,"T/C endpoint: mean survival time, dose: 400.0 mg/kg/injection, schedule: Q04DX003 (ip), vehicle: saline",1 of 6
CC(=O)OCCN1CCN(CC/C=C2\c3ccccc3Sc3ccc(Cl)cc32)CC1,survivor count,"T/C endpoint: mean survival time, dose: 100.0 mg/kg/injection, schedule: Q04DX003 (ip), vehicle: saline with Tween-80",0 of 6
same,survivor count,"T/C endpoint: mean survival time, dose: 100.0 mg/kg/injection, schedule: Q04DX003 (ip), vehicle: saline",2 of 6
same,survivor count,[5],0 of 6
same,survivor count,[6],0 of 6
CO/C(=N\C(=O)NC1CC(OC(=O)c2ccc(C)cc2)C(COC(=O)c2ccc(C)cc2)O1)NC(=O)c1ccc(C)cc1 (configuration not stated),survivor count,[5],6 of 6
same,survivor count,[6],6 of 6
COc1cc(OC)c2c(c1Cl)OCC2=O,survivor count,[7],2 of 6
CCCN1CCN(c2ccccc2)CC1,survivor count,[5],2 of 6
same,survivor count,[6],0 of 6
Cc1ccc(O[Si](C)(C)C)cc1,survivor count,[2],2 of 6
same,survivor count,[7],0 of 6
COc1ccc(/C=C/C(=O)Oc2cc(O)cc(O)c2)cc1,survivor count,"T/C endpoint: mean survival time, dose: 100.0 mg/kg/injection, schedule: Q01DX001 (ip), vehicle: saline with Tween-80",6 of 6
Cc1nc(N)sc1S(=O)(=O)F,survivor count,[7],1 of 6
COc1ccc(C(OCC2OC(n3cc(C)c(=O)[nH]c3=O)CC2OP(=O)(O)OCC2OC(n3cc(C)c(=O)[nH]c3=O)CC2OP(=O)(O)OCC2OC(n3cc(C)c(=O)[nH]c3=O)CC2OP(=O)(O)OCC2OC(n3cc(C)c(=O)[nH]c3=O)CC2OP(=O)(O)OCC2OC(n3ccc(N)nc3=O)C(O)C2O)(c2ccccc2)c2ccccc2)cc1 (configuration not stated),T/C,"T/C endpoint: median survival time, dose: 50.0 mg/kg/injection, schedule: Q01DX005 (ip), vehicle: saline",131 % of control
same,T/C,"T/C endpoint: median survival time, dose: 100.0 mg/kg/injection, schedule: Q01DX005 (ip), vehicle: saline",131 and 137 % of control
same,T/C,"T/C endpoint: median survival time, dose: 200.0 mg/kg/injection, schedule: Q01DX005 (ip), vehicle: saline",141 and 146 % of control
C=CC[n+]1ccccc1/C=C\c1ccc(N(C)C)cc1,survivor count,[3],0 of 6
same,survivor count,[4],0 of 6
COc1ccc2ccccc2c1,survivor count,"T/C endpoint: mean survival time, dose: 400.0 mg/kg/injection, schedule: Q04DX003 (ip), vehicle: other",6 of 6
